Values from PubChem BioAssay AID504784 (Drosophila RNAi Screening Center, 2011)

Assay: 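Fly genes whose silencing alters how much lipid cells keep in droplets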 (primary screen)
System: Drosophila Kc167 embryonic cells
Knock-down reagent: long dsRNA against Drosophila genes, about 250 ng dsRNA per well
Timing: 4 days
Treatment: cells fed 400 µM oleic acid bound to BSA
Detection: 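Cells imaged and segmented; ratio of lipid droplet area to nuclear area, log-transformed, then normalised as a B-score over the screen; higher means more stored lipid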
Scale: droplet/nuclear area B-score: higher = more stored lipid (overstorage)
The screen tested about 17,000 reagents; this is a random part of those with a known target gene and a result. 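Each column is one replicate's B-score; the combined score over replicates was not deposited, so single values may mislead.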 The numbers tell different reagents against one gene apart. Names joined by + are all predicted targets of the reagent. No sequences are given here.

no.	Target gene	dsRNA no.	droplet/nuclear area B-score, replicate 1	droplet/nuclear area B-score, replicate 2	droplet/nuclear area B-score, replicate 3
1	CG17145	1	-1.52	0.146	
2	mRpS25	1	1.94	0.674	
3	CG33285	1	1.32	-0.532	
4	bgm	1	3.74	2.05	
5	mdu	1	-2.15	-0.882	2.84
6	mdu	2		2	
7	CG13727	1	0.348	-1.47	
8	Pglym87	1	-0.806	-0.126	
9	Nepl8	1	1.09	-0.436	
10	Hn	1	0.0119	-0.963	
11	CG3339	1	2.43	0.983	
12	CG3339	2	-2.21	1.55	
13	Afg3l2	1	0.084	1.43	2.25
14	CG15125	1	-0.0954	-2.4	
15	CG18585	1	2.23	-0.216	
16	ash1	1	0.00166	-2.15	-0.0195
17	Fign	1	0.0425	0.857	
18	pyx	1	0.0289	0.146	
19	pyx	2	0.749	0.215	
20	mRpL19	1	0.198	0.746	2.91
21	mRpL19	2	-0.939	-1.42	
22	msi	1	0.583	-1.02	
23	Rint1	1	-0.396	-0.0286	
24	CG12942	1	1.36	1.43	
25	Uba2	1	0.62	1.1	
26	Prosalpha7	1	1.27	-0.167	
27	Mic26-27	1	0.792	-0.473	
28	Cubn2	1	1.17	-0.115	
29	Cubn2	2	0.0269	1	
30	Cnep1r2	1	-0.704	1.72	
31	CG32170	1	0.657	-1.14	
32	CG15506	1	0.531	-0.138	
33	CG12984	1	2.22	1.54	
34	Oatp33Ea	1	0.164	-0.00232	
35	Cand1	1	0.287	-1.5	
36	CG17572	1	-0.0865	-0.94	
37	CG8945	1	0.0211	0.502	
38	CG8945	2	-0.00863	-1.7	
39	Cpr67Fb	1	0.128	-0.0137	
40	prg	1	-0.258	-3.56	
41	nullo	1	-1.32	-0.114	
42	lobo	1	0.584	0.223	
43	lobo	2	0.152	-0.428	
44	Pi3K68D	1	-0.471	0.37	
45	Hsp70Bc	1	2.35	2.48	
46	CG4074 + CG4186	1	3.82	2.63	
47	Vtld + CG42529	1	0.241	-0.878	
48	Ncoa6	1	0.0428	0.938	
49	Ncoa6	2	-2.14	1.67	
50	CG14982	1	-0.736	0.345	
51	CG14982	2	-0.0646	0.0256	
52	CG33695 + cana	1	2.55	3.52	
53	CG33695 + cana	2	-0.067	-0.713	
54	CG9483	1	0.882	0.75	
55	dlp	1	-2.3	0.633	-0.847
56	dlp	2	0.827	0.3	
57	tll	1	0.0955	1.29	
58	Shawl	1	2.43	0.0931	
59	Shawl	2	-0.222	-0.439	
60	Alp8	1	-0.00885	0.197	
61	Grd	1	-0.602	-0.223	
62	CG10600	1	-2.45	0.748	
63	Tap42	1	-1.42		
64	CG9521	1	0.0984	-1.68	
65	pigeon	1	-2.04	0.378	
66	MBD-like	1	0.86	0.518	
67	fne	1	0.797	0.961	0.699
68	fne	2	-1.09	-0.672	
69	CG9782	1	0.331	0.59	
70	CG9782	2	-1.64	1.18	
71	Prp8	1	5.94	-2	
72	l(2)k09848	1	0.491	-0.00753	
73	Ptp99A	1	-0.764	1.17	
74	Ptp99A	2	1.4	0.132	
75	Ptp99A	3	0.854	-0.562	
76	Ptp99A	4	-0.315	-0.738	
77	Ptp99A	5	-0.974	-1.17	
78	Ptp99A	6	0.757	0.426	
79	Ptp99A	7	1.5	0.154	
80	Ptp99A	8	0.106	-0.971	
81	CG14104	1	-0.694	-0.348	
82	Fam92	1	-2.66	1.18	
83	Ada3	1	-0.152	-0.172	
84	Ada3	2	-1.05	-0.554	
85	ebd1	1	-0.00497		
86	Mtmr6	1	-2.83	-0.0545	
87	CG30010	1	0.39	1	
88	CG1943	1	-0.882	0.153	
89	FBXO11	1	0.204	4.91	
90	vir	1	-0.574	-1.7	
91	Cdc5	1	0.807	1.54	
92	Mcm7	1	0.535	-1.75	
93	sturkopf	1	0.0775		
94	CG32260	1	-1.3	0.00954	
95	Obp85a	1	-0.0221	-0.856	
96	Cyp6t1	1	1.01	1.39	
97	sqz	1	-0.37	-0.353	
98	GrlHz	1	-0.18	-0.159	
99	Trf2	1	-1.13	-0.289	
100	TTLL4A	1	-0.0968	0.164	
101	yellow-h	1	0.564	-0.188	
102	Hsc70-4	1	1.2	6.26	
103	DCTN4-p62	1	-0.774	-4.58	
104	CG10063	1	0.795	-0.548	
105	eater	1	-0.403	0.104	2.33
106	eater	2	0.0246	-0.769	

Part of the list above, set out differently.
Target gene	dsRNA no.	droplet/nuclear area B-score, replicate 1	droplet/nuclear area B-score, replicate 2	droplet/nuclear area B-score, replicate 3
mRpL19	2	-0.939	-1.42	
msi	1	0.583	-1.02	
Rint1	1	-0.396	-0.0286	
CG12942	1	1.36	1.43	
Uba2	1	0.62	1.1	
Prosalpha7	1	1.27	-0.167	
Mic26-27	1	0.792	-0.473	
Cubn2	1	1.17	-0.115	
Cubn2	2	0.0269	1	
Cnep1r2	1	-0.704	1.72	
CG32170	1	0.657	-1.14	
CG15506	1	0.531	-0.138	
CG12984	1	2.22	1.54	
Oatp33Ea	1	0.164	-0.00232	
